Values of other authors in patent US20080181955A1, “Natural dietary supplement and method for enhancing human libido” (priority 2007, published 2008).
At least one structure is not confirmed: it was looked up by name or label, or the drawing left a doubt.

Test system: human endothelial NO synthase
Details: polyphenolic constituents of red wine

## Oc1cc(O)c2cc(O)c(-c3ccc(O)c(O)c3)[o+]c2c1 [cyanidin]
  eNOS expression: enhanced eNOS expression moderately
